Consider 39 sequences from paper PMC7862700.

The list shows a part of the results, in another mix than the full data. At the low end of the ranking the order means little.

The target of this experiment is T1, ELF5 (UniProt Q9UKW6-2).
T1 sequence: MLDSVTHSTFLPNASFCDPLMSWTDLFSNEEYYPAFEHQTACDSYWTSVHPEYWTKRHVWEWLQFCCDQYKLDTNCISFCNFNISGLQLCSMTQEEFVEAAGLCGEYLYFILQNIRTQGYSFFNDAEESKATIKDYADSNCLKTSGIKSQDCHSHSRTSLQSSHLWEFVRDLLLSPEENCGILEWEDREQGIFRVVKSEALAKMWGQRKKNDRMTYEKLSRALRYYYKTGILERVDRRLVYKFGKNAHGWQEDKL
Description: DAPPL (digital affinity profiling via proximity ligation, sequencing). The settings on record: 10 mM Tris-HCl pH 7.5, 50 mM NaCl, 1 mM DTT, 4% glycerol, room temperature, 30 min; GST-TFs on glutathione beads, 16-mer random dsDNA library, 0.1% …; high values mean tight binding; double strand, one strand shown; scale: fold enrichment (6-mer frequency, TF over GST control).
Turning to CAGATT, the binding signal was found to be 0.879. The figure for ATTGGG is 1.11; for GGTGTT it is 0.977; for TGCTCG it is 1.18. The result for TCAAAG reads 1.04. As for AAATGC, the binding signal stood at 1.33. The result for TCATAT reads 1.19; that for TCTGCG, 1.15; that for GCCTAC, 1.17. The figure for CTGATT is 1.19; for ATTAAG it is 1.02; for GATGTA it is 1.38.

In the case of GTTTTA, the binding signal was determined as 1.09. Sequence CCAATA returned a binding signal of 1.13.

The sequence CCTTTT returned a binding signal of 1.61. Consider ATAGCC, for which the binding signal is 0.965. The figure for ACTACG is 1.33; for AATGTT it is 1.62; for CCATCT it is 1.27. The result for AAAGCC reads 0.992. As to GCCTAA, the binding signal turned out to be 1.18. For the sequence CGTTTC, the binding signal turned out to be 2.04. The result for TTGGAT reads 0.948; that for CATTAA, 0.971.

AGCTGT gave a binding signal of 0.972. The figure for AATATC is 1.82; for TAGTGG it is 1.12; for TTGTAT it is 1.35. The result for CCATTA reads 1.08.

As for TTTGTG, the binding signal is 1.18. Turning to TGTTAC, the binding signal is 1.43. Take TGGAAT: the binding signal came out at 1.18.

The sequence AAATCT had a binding signal of 1.27. The figure for TCCTCG is 1.93; for AATCTT it is 1.43.

TAATTC came in with a binding signal of 1.41. The result for AAGTTC reads 1.57. The figure for CCTGAA is 1.5; for TCGCAT it is 0.935.
